This is an account of results in paper PMC7883291.

By UniProt entry, the sequences of proteins in these tests, tags left out. Residues count along the entry.
UniProt P0A6F5, residues 2-548: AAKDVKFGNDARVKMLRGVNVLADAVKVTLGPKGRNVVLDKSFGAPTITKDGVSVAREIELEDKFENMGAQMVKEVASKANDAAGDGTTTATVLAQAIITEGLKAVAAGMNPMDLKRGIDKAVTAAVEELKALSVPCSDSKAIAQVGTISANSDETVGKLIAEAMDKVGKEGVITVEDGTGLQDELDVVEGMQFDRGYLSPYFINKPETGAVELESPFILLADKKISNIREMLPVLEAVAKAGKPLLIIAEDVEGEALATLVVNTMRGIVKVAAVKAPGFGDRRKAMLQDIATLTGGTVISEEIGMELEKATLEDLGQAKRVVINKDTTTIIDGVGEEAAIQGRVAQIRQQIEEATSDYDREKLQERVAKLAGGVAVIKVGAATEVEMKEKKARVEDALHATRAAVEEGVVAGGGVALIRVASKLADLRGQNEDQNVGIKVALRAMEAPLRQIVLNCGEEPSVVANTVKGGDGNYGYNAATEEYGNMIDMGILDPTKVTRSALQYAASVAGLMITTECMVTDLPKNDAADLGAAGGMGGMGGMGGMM

The test addresses Escherichia coli GroEL chaperone (Escherichia coli) (UniProt P0A6F5). Nature of the test: cross-linking; in-gel cross-linking MS (IGX-MS) of the three BN-PAGE bands GroEL, GroEL:gp23 and GroEL:(gp23)2 with 1.5 mM DSS; both purified.

These are yes or no findings as the source states them, for the method shown. Some binding calls cover weakened binding; strength is not graded here.

B1: bacteriophage T4 capsid protein (gp23) (protein, UniProt P04535 1-521)
chain: MTIKTKAELLNKWKPLLEGEGLPEIANSKQAIIAKIFENQEKDFQTAPEYKDEKIAQAFGSFLTEAEIGGDHGYNATNIAAGQTSGAVTQIGPAVMGMVRRAIPNLIAFDICGVQPMNSPTGQVFALRAVYGKDPVAAGAKEAFHPMYGPDAMFSGQGAAKKFPALAASTQTTVGDIYTHFFQETGTVYLQASVQVTIDAGATDAAKLDAEIKKQMEAGALVEIAEGMATSIAELQEGFNGSTDNPWNEMGFRIDKQVIEAKSRQLKAAYSIELAQDLRAVHGMDADAELSGILATEIMLEINREVVDWINYSAQVGKSGMTLTPGSKAGVFDFQDPIDIRGARWAGESFKALLFQIDKEAVEIARQTGRGEGNFIIASRNVVNVLASVDTGISYAAQGLATGFSTDTTKSVFAGVLGGKYRVYIDQYAKQDYFTVGYKGPNEMDAGIYYAPYVALTPLRGSDPKNFQPVMGFKTRYGIGINPFAESAAQAPASRIQSGMPSILNSLGKNAYFRRVYVKGI
For the molecule B1, the binding result is recorded as “binds”.
